PubChem BioAssay AID1508588, Peter MacCallum Cancer Centre, 2020

Assay: 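Knock-downs boosting vemurafenib effects on melanoma cell growth or lactate release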 (primary screen)
Cells: human WM266.4 melanoma cells (BRAF V600 mutant)
Knock-down reagent: siRNA pool against human genes, 40 nM
Timing: 96 h from transfection to read-out
Conditions: vemurafenib 300 nM (about IC25), added 48 h after transfection, for 48 h; comparison arm got DMSO vehicle only
Detection: 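Ratios to non-targeting siRNA for cell gain, counted as DAPI nuclei after minus before drug and averaged over two replicates, and for absorbance-read medium lactate per cell; both binned into fold-change classes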
Scale: cell gain with vemurafenib: higher = more cell gain than with non-targeting siRNA; lactate per cell with vemurafenib: higher = more lactate made per cell
Hit rule: 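a knock-down counts as enhancing when its fold-change classes with vehicle and with vemurafenib, taken together, show a stronger drug effect on cell gain or lactate per cell; exact class pairs not stated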
Calls: active = enhances vemurafenib effect; inactive = no enhancement seen
Here is one part, drawn at random, of about 18,000 reagents tested. Over the whole deposit, 790 (4.4%) are marked active. 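Calls rest on a combination of fold-change classes in drug and vehicle arms, not all shown here.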 A number with no mark means an inactive call.

gene symbol	cell gain with vemurafenib	lactate per cell with vemurafenib
IDNK	1.08	0.52
GJB4	0.96	0.68
ACP6	1.12	1.09
CCDC83	0.68	1.5
ADH1C	0.57	0.35
ZBTB6	0.44	1.25
SCHIP1	0.65 (active)	0.41
SLC25A10	0.68	0.83
TRERF1	0.6	0.82
PPIL3	0.81 (active)	0.35
TCEAL8	0.63 (active)	0.46
GPRASP1	0.34	0.69
NFX1	0.7	1.2
FCMR	0.35	0.72
PRRX1	0.75	0.89
UVRAG	0.71	1.08
ZNF454	0.05	1.98
SPTBN4	0.96	0.8
GABRA6	0.71	1.07
CFAP206	0.36	0.55
KCNJ4	0.53	0.55
FASTKD4	0.49	1.16
TATDN3	0.63	0.74
IGF2BP2	0.43	0.89
CASKIN2	0.56	1.26
GARS1	0.29	1.31
OR2A14	0.1	0.68
C1orf50	0.06	2
TRAPPC2L	0.51	0.82
PRMT5	0.88	1.09
UBC	-0.04	2.12
ATP6V0A2	0.6	1.3
PIK3C2A	0.02	2.21
DPYS	0.58	0.73
ADK	0.64	1.52
MMP13	0.54	1.08
PLA2G2F	0.04	0.67
SYVN1	1.03	0.96
ZYG11B	0.83	0.74
TRMU	0.51	1.77
TNKS	0.85	0.42
OR6K6	0.65	0.24
MED28	0.47	1.08
SLC35B3	0.1	1.46
BCL2L15	0.69	0.19
RING1	0.33	2.27
KCNA6	0.03	1.31
MBD5	0.59	0.34
CARHSP1	0.11	2.04
FER1L6	0.75	0.84
NHERF1	0.4	1.47
KRT33A	0.23	0.86
ATP8B2	0.99	0.59
ACKR1	0.38	0.38
ZNF3	0.33	0.55
GPRC5A	0.31	1.37
BORA	0.37	1.4

Only “cell gain with vemurafenib”, for 8 of the entries above:
CASKIN2: 0.56
GARS1: 0.29
OR2A14: 0.1
C1orf50: 0.06
TRAPPC2L: 0.51
PRMT5: 0.88
UBC: -0.04
ATP6V0A2: 0.6
